Some of the results follow. Single values are uncertain, as repeats are few or missing.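 Cells were imaged in 1,536-well plates, and nuclei stained with an antibody against cleaved PARP were counted against all DNA-stained nuclei to give the apoptosis fraction. Screening doses were chosen to leave most cells alive, and resting and induced cleaved-PARP levels differ strongly between cell lines.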
Tests used:
Assay in all cases: cleaved PARP positive nuclei fraction relative to DMSO control; melanoma cells; higher = more apoptosis
Settings in all cases: library dose: low library concentration; 72 h
MZ2-MEL = system: MZ2-MEL
MeWo = system: MeWo
RPMI7951 = system: RPMI7951
RVH-421 = system: RVH-421
SkMel28 = system: SkMel28
SkMel2 = system: SkMel2
SkMel30 = system: SkMel30
SkMel5 = system: SkMel5
UACC257 = system: UACC257
UACC62 = system: UACC62

Row | SMILES | cleaved PARP positive nuclei fraction (MZ2-MEL) | cleaved PARP positive nuclei fraction (MeWo) | cleaved PARP positive nuclei fraction (RPMI7951) | cleaved PARP positive nuclei fraction (RVH-421) | cleaved PARP positive nuclei fraction (SkMel28) | cleaved PARP positive nuclei fraction (SkMel2) | cleaved PARP positive nuclei fraction (SkMel30) | cleaved PARP positive nuclei fraction (SkMel5) | cleaved PARP positive nuclei fraction (UACC257) | cleaved PARP positive nuclei fraction (UACC62)
1 | CC(=O)O[C@@]12CO[C@@H]1C[C@H](O)[C@@]1(C)C(=O)[C@H](O)C3=C(C)[C@@H](OC(=O)[C@H](O)[C@@H](NC(=O)OC(C)(C)C)c4ccccc4)C[C@@](O)([C@@H](OC(=O)c4ccccc4)[C@H]21)C3(C)C [Docetaxel] + O=C(CCCCCCC(=O)Nc1ccccc1)NO [vorinostat] (first compound 0.0001 µM, partner dose 0.08 µM) | 897% | 871% | 179% | 105% | 303% | 917% | 220% | 73.3% | 841% | 234%
2 | CC(=O)O[C@@]12CO[C@@H]1C[C@H](O)[C@@]1(C)C(=O)[C@H](O)C3=C(C)[C@@H](OC(=O)[C@H](O)[C@@H](NC(=O)OC(C)(C)C)c4ccccc4)C[C@@](O)([C@@H](OC(=O)c4ccccc4)[C@H]21)C3(C)C [Docetaxel] + Oc1cc(-c2nc(-c3ccccc3)[nH]c2-c2ccncc2)ccc1Cl [L779450] (first compound 0.0001 µM, partner dose 0.2 µM) | 292% | 565% | 302% | 92.9% | 521% | 341% | 220% | 379% | 499% | 614%
3 | CN(c1ncccc1CNc1nc(Nc2ccc3c(c2)CC(=O)N3)ncc1C(F)(F)F)S(C)(=O)=O + COC(=O)c1sccc1S(=O)(=O)Nc1ccc(Nc2ccccc2)cc1OC [GSK0660] (first compound 0.08 µM, partner dose 1 µM) | 367% | 176% | 124% | 92.9% | 168% | 186% | 183% | 304% | 160% | 314%
4 | CC1(C)CCC(c2ccc(Cl)cc2)=C(CN2CCN(c3ccc(C(=O)NS(=O)(=O)c4ccc(N[C@H](CCN5CCOCC5)CSc5ccccc5)c(S(=O)(=O)C(F)(F)F)c4)cc3)CC2)C1 + CN(C)S(=O)(=O)c1ccc2c(c1)/C(=C/c1cc3c([nH]1)CCCC3)C(=O)N2 [SU6656] (first compound 0.4 µM, partner dose 0.4 µM) | 272% | 80.9% | 168% | 75% | 28.5% | 78.4% | 85% | 196% | 121% | 137%
5 | NC1(c2ccc(-c3nc4ccn5c(=O)[nH]nc5c4cc3-c3ccccc3)cc2)CCC1 + O=S(=O)(c1ccccc1)N(CC(F)(F)F)c1ccc(C(O)(C(F)(F)F)C(F)(F)F)cc1 [T0901317] (first compound 0.4 µM, partner dose 1.4 µM) | 165% | 33% | 33% | 127% | 89.4% | 127% | 326% | 77.7% | 89.1% | 332%
6 | CCCCCCCCc1ccc(CCC(N)(CO)CO)cc1 [fingolimod] + CCN(CC)CCCCNc1ncc2cc(-c3cc(OC)cc(OC)c3)c(NC(=O)NC(C)(C)C)nc2n1 [PD173074] (first compound 2 µM, partner dose 0.1 µM) | 160% | 62.4% | 71.5% | 36.3% | 203% | 73.7% | 392% | 153% | 45% | 207%
7 | CN(c1ncccc1CNc1nc(Nc2ccc3c(c2)CC(=O)N3)ncc1C(F)(F)F)S(C)(=O)=O + COc1ccc(COc2ccc(Cc3cnc(N)nc3N)cc2OC)cc1 [GW2580] (first compound 0.08 µM, partner dose 1 µM) | 126% | 72.4% | 92.2% | 68.4% | 139% | 56.3% | 123% | 194% | 278% | 159%
8 | CCCCCCCCc1ccc(CCC(N)(CO)CO)cc1 [fingolimod] + Cc1cc(N2CCOCC2)cc2[nH]c(-c3c(NC[C@@H](O)c4cccc(Cl)c4)cc[nH]c3=O)nc12 [BMS536924] (first compound 2 µM, partner dose 0.2 µM) | 72.6% | 74.3% | 92.4% | 81.6% | 135% | 132% | 143% | 321% | 174% | 70.1%

— the supplement of paper PMC4604168 (melanoma cell lines)
